Data reported in US20140045771 (published 2014).

Assay: general procedure: solution-phase peptide synthesis; DCC
Conditions: late stage modification step, Hydrochloride

Substance | step yield [%]
[1-(2-{[1-(2-amino-3-methylbutanoyl)cyclopentyl]carbonylamino}-3-methylbytanoyl)pyrrolidin-2-yl]-N-{3-oxo-3-[3-(trifluoromethyl)(1,2,4-triazolo[4,3-a]pyrazin-7-yl)]-1-[(2,4,5-trifluorophenyl) methyl]propyl}carboxamide Hydrochloride | 95
[1-(2-{[1-(2-amino-3-methylbutanoyl)cyclopentyl]carbonylamino}-3-methylbutanoyl)pyrrolidin-2-yl]-N-{3-oxo-3-[3-(trifluoromethyl)(1,2,4-triazolo[4,3-a]pyrazin-7-yl)]-1-[(2,4,5-trifluorophenyl)methyl]propyl}carboxamide | 97
